No constants are given. Whether binding was seen depends on the method and setting. Binding seen in cells or lysates may run through a third protein. Binding can be weak; no strength is given. Sequences can lack the tags named with a protein.
Experiments:
Test in all cases: split reporter; firefly luciferase complementation imaging (LCI) in Nicotiana benthamiana leaves; COP1 forms fused with cLUC, GH3.5 with nLUC; 3 d in the dark after infiltration
[1] = target: COP1-ΔWD40 fused with cLUC (Arabidopsis)
[2] = target: COP1-ΔRING fused with cLUC (Arabidopsis)
[3] = target: COP1-ΔCoil fused with cLUC (Arabidopsis)

binding [1]: binds
binding [2]: binds
binding [3]: binds
B1: GST-GH3.5 (enzyme, Arabidopsis, UniProt O81829 1-612, looked up)
chain: MPEAPKKESLEVFDLTLDQKNKQKLQLIEELTSNADQVQRQVLEEILTRNADVEYLRRHDLNGRTDRETFKNIMPVITYEDIEPEINRIANGDKSPILSSKPISEFLTSSGTSGGERKLMPTIEEELDRRSLLYSLLMPVMSQFVPGLENGKGMYFLFIKSESKTPGGLPARPVLTSYYKSSHFKERPYDPYTNYTSPNETILCSDSYQSMYSQMLCGLCQHQEVLRVGAVFASGFIRAIKFLEKHWIELVRDIRTGTLSSLITDPSVREAVAKILKPSPKLADFVEFECKKSSWQGIITRLWPNTKYVDVIVTGTMSQYIPTLDYYSNGLPLVCTMYASSECYFGVNLRPLCKPSEVSYTLIPSMAYFEFLPVHRNNGVTNSINLPKALTEKEQQELVDLVDVKLGQEYELVVTTYAGLCRYRVGDLLRVTGFKNKAPQFSFICRKNVVLSIDSDKTDEVELQNAVKNAVTHLVPFDASLSEYTSYADTSSIPGHYVLFWELCLDGNTPIPPSVFEDCCLAVEESFNTVYRQGRVSDKSIGPLEIKIVEPGTFDKLMDYAISLGASINQYKTPRCVKFAPIIELLNSRVVDSYFSPKCPKWVPGHKQWGSN
notes: the GH3.5 CDS inserted into BamHI/EcoRI of pGEX4T-1; also called GRETCHEN HAGEN 3.5; source: E. coli BL21, purified (Glutathione Sepharose 4B); not shown: GST, N-terminal, kept

From paper PMC11997217, “Inactivation of GH3.5 by COP1-mediated K63-linked ubiquitination promotes seedling hypocotyl elongation” (Nature Communications, 2025)
